PubChem BioAssay AID652054 (National Center for Advancing Translational Sciences (NCATS), 2013)
The whole screen tested about 360,000 compounds, of which about 9,100 (2.5%) were called active. This list was built around the results that the source calls inconclusive (neither active nor inactive); the mix of calls is not that of the screen. Rule as the data show it: active = max response below about -50%; inconclusive = no clear call, values can overlap the other calls; inactive = above that.
% is scaled to controls: 0 for no effect and ±100 for the full control effect.

By UniProt entry, the sequences of proteins in these tests, tags left out.
UniProt P35462, whole entry, looked up: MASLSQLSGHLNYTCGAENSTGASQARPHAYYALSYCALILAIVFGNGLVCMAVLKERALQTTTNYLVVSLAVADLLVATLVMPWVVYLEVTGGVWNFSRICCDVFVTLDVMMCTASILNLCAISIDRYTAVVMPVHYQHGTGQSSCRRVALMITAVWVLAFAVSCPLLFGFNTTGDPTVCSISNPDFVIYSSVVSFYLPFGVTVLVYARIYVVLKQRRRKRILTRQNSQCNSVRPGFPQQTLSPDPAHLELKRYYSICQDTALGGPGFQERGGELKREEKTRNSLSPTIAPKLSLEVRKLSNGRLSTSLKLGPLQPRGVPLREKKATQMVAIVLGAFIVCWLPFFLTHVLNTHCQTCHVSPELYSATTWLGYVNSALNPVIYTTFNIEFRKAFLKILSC

These compounds were tested against D(3) dopamine receptor (Homo sapiens) (UniProt P35462) (assay: qHTS of D3 Dopamine Receptor Antagonist: qHTS). Settings: D3R cells, DiscoveRx beta-arrestin luminescence, antagonist mode; hits give low values.
Outline: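 Cells expressing the human receptor were seeded at 1500 cells/well, incubated overnight at 37 degrees C in 5% CO2, then exposed to library compounds with dopamine controls for 90 minutes at 37 degrees C before luminescent detection.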
In the case of `COc1ccc(C(CCc2ccc(C)o2)NC(=O)Nc2ccc(OC)cc2OC)cc1` (stereo not given), the max response, negative = inhibition is reported as inconclusive: -42.5%. In the case of `CCOC(=O)c1c(C)[nH]c(C)c1S(=O)(=O)NCC1CCN(Cc2cccc(Cl)c2)CC1`, the max response, negative = inhibition is reported as inconclusive: -34.1%. With `Cc1ccc(OCc2cc(C(=O)N3CCC(C(O)C(C)C)CC3)no2)cc1C` (stereo not given) the max response, negative = inhibition was inactive: 13.8%. `Cc1[nH]c2ccccc2c(=O)c1CN(C)Cc1ccccc1` was tested, and the max response, negative = inhibition was active: -63.1%. In the case of `Cc1cccc(/C=N/NC(=O)c2ccc(NC(=O)c3ccc(Cl)cc3)cc2)n1`, the max response, negative = inhibition is reported as inconclusive: -31.4%. `CC1(C)Cc2c(c(=S)nc(-c3ccccc3)n2CCOCCO)CO1` was tested, and the max response, negative = inhibition was inconclusive: -39.8%. In the case of `Cc1cc(C)cc(NC(=O)CSc2nc3nc(C)cc(C)n3n2)c1`, the max response, negative = inhibition is reported as inactive: -11.3%. `OC(c1ccccc1)(c1ccccc1)C1CCN(CCCOc2ccccc2Cl)CC1` was tested, and the max response, negative = inhibition was active: -79.7%. With `CC(C)N(Cc1ccccc1)C(=O)CN1C(=O)NC2(CCCc3ccccc32)C1=O` (stereo not given) the max response, negative = inhibition was inconclusive: -32%. For `COc1cccc(C(=O)N2CCN(C3CCC(c4ccccc4)CC3)CC2)c1` (stereo not given), the max response, negative = inhibition was inconclusive: -48.7%. In the case of `Cc1cc2nc(NC(=O)C3(C)CCN(C)C3)[nH]c2cc1C` (stereo not given), the max response, negative = inhibition is reported as inconclusive: -35.1%. With `Cc1ccc(NC(=S)N/N=C/c2ccc(Cl)c([N+](=O)[O-])c2)cc1` the max response, negative = inhibition was inconclusive: -45.6%. In the case of `CCc1ccc2c(c1)/C(=C/C(=O)c1cccs1)C(=O)N2`, the max response, negative = inhibition is reported as inactive: -29%. `O=C(CCN1CCN(C/C=C/c2ccccc2)CC1)Nc1ccccc1Cl` was tested, and the max response, negative = inhibition was inconclusive: -30.4%. For `O=C(Nc1ccccc1)C1=C[C@@H](c2csc3ccccc23)C[C@@H](OCc2ccc(CO)cc2)O1`, the max response, negative = inhibition was active: -51%. In the case of `CC1=C(CCN2CCN(C(C)C)C(CCO)C2)C(C)(C)CCC1` (stereo not given), the max response, negative = inhibition is reported as inconclusive: -32.1%. `CC1Cc2ccccc2N1S(=O)(=O)c1cccc(C(=O)N2CCCCC2)c1` (stereo not given) was tested, and the max response, negative = inhibition was inconclusive: -33.8%. In the case of `COC1=CC2(O)CCCC2=CC1=O` (stereo not given), the max response, negative = inhibition is reported as inconclusive: -34%. For `C=CCOC(=O)C(C#N)c1nc2ccccc2nc1N1CCN(Cc2ccc3c(c2)OCO3)CC1` (stereo not given), the max response, negative = inhibition was inactive: -6.91%. With `[N-]=[N+]=NC[C@H](Cc1ccccc1)N1CC[C@@H](NC(=O)OCc2ccccc2)CCC1=O` the max response, negative = inhibition was inconclusive: -41.2%. In the case of `CC(=O)N/C(=C/c1ccc2c(c1)OCO2)C(=O)NCC(=O)O`, the max response, negative = inhibition is reported as inconclusive: -31.1%. In the case of `CN(CCC#N)C(=O)COC(=O)c1ccccc1C(=O)c1ccc(Cl)c([N+](=O)[O-])c1`, the max response, negative = inhibition is reported as inactive: -13.5%. With `COc1cc(O)c(C(CC(=O)N2CCCCC2)c2ccc3c(c2)OCO3)c(OC)c1` (stereo not given) the max response, negative = inhibition was inconclusive: -34%. `NC(=O)CC(NC(=O)Cc1cccc2ccccc12)c1ccc(NCC2CC2)c([N+](=O)[O-])c1` (stereo not given) was tested, and the max response, negative = inhibition was inconclusive: -30.7%. With `CC(=O)c1cccc(NC(=O)CN2C(=O)COc3ccc(Cl)cc32)c1` the max response, negative = inhibition was active: -94.5%. In the case of `COc1ccc(N2CCN(C(C)C(=O)N3CC(C)OC(C)C3)CC2)cc1` (stereo not given), the max response, negative = inhibition is reported as inconclusive: -36.7%. In the case of `COC(=O)CSc1nnc(CNC(=O)c2cccs2)n1-c1cc(OC)ccc1OC`, the max response, negative = inhibition is reported as inconclusive: -31.4%. `Cc1cc(-c2ccccc2)nc(Oc2ccc(C(C)(C)C)cc2)c1S(C)(=O)=O` was tested, and the max response, negative = inhibition was inconclusive: -32.7%. `COC(=O)c1[nH]c2ccc(Br)cc2c1NC(=O)CN1CCN(C2CCCCC2)CC1` was tested, and the max response, negative = inhibition was inconclusive: -39.1%. With `CCc1nnc(NC(=O)c2cccc(OC)c2)s1` the max response, negative = inhibition was inconclusive: -31.6%. `Cc1ccc([N+](=O)[O-])cc1Nc1nc(N2CCOCC2)nc(N2CCOCC2)n1` was tested, and the max response, negative = inhibition was inconclusive: -34.1%. With `COc1ccc(Br)cc1/C=N/NS(=O)(=O)c1ccccc1` the max response, negative = inhibition was inconclusive: -32.3%. For `COc1ccc(Cl)cc1/C=C/c1ccc2cccc(O)c2n1`, the max response, negative = inhibition was active: -84.1%. For `O=C(CNC(=O)c1ccc(Br)cc1)N=Nc1c(O)[nH]c2ccc([N+](=O)[O-])cc12`, the max response, negative = inhibition was inconclusive: -42.2%. `CCCCNc1nc(=S)n(-c2ccccc2)c(C)c1C(C)=O` was tested, and the max response, negative = inhibition was inconclusive: -48.3%. In the case of `COc1ccc(-c2cc(C(=O)N3CCN(c4ccccc4O)CC3)c3ccccc3n2)cc1`, the max response, negative = inhibition is reported as inactive: 28.7%. With `NNC(=O)c1ccc(CSc2nc3ccccc3[nH]2)cc1` the max response, negative = inhibition was active: -56.3%. `CN1CCN(C(=O)c2ccc(N(Cc3ccccc3Cl)S(C)(=O)=O)cc2)CC1` was tested, and the max response, negative = inhibition was inconclusive: -42.4%. `CC1CCCC(C)N1C(=O)Cn1cc(/C=C2/C(=O)Nc3ccccc32)c2ccccc21` (stereo not given) was tested, and the max response, negative = inhibition was inconclusive: -45.2%. `O=C(CCNS(=O)(=O)c1ccccc1)OCC(=O)c1ccc[nH]1` was tested, and the max response, negative = inhibition was inactive: 9.79%. For `CC(C)(C)NC(=O)CSc1nnnn1C(C)(C)C`, the max response, negative = inhibition was inconclusive: -30.5%. For `CC1CC(C)CN(CCCn2c(=S)[nH]c3ccccc3c2=O)C1` (stereo not given), the max response, negative = inhibition was inconclusive: -30.4%. `COc1ccc(NS(=O)(=O)c2ccc(O)c(NS(=O)(=O)c3ccc(NC(C)=O)cc3)c2)cc1` was tested, and the max response, negative = inhibition was inconclusive: -39.7%. `COc1cc(CN2CCN(Cc3ccc(SC)cc3)CC2)cc(OC)c1O` was tested, and the max response, negative = inhibition was inconclusive: -39%. With `O=C(CSc1nnc(NC(=O)C2CC2)s1)NCc1ccc(F)cc1` the max response, negative = inhibition was inconclusive: -37.3%. `COc1ccccc1NC(=O)Cn1nnc(C(=O)Nc2ccccc2)c1N` was tested, and the max response, negative = inhibition was inconclusive: -30.5%. For `Cc1ccc(Cn2c(C)c3cnn(CC(=O)NCc4ccccn4)c(=O)c3c2C)cc1`, the max response, negative = inhibition was inconclusive: -31.5%. `OCC(CBr)(CBr)CBr` was tested, and the max response, negative = inhibition was active: -54.4%. With `Cc1ccc(C2(c3ccc(C)cc3)CC2C(=O)Nc2ccc([N+](=O)[O-])cc2O)cc1` (stereo not given) the max response, negative = inhibition was active: -65.8%. `O=C(C1CCN(S(=O)(=O)N2CCC3(CC2)OCCO3)CC1)N1CCN(Cc2ccccc2)CC1` was tested, and the max response, negative = inhibition was inactive: -6.16%. `Brc1ccccc1/C=N/Nc1ccc2ccccc2n1` was tested, and the max response, negative = inhibition was inconclusive: -49.8%. In the case of `Cc1ccc(/C(=N/Nc2ncnc3ccccc23)C(=O)O)cc1`, the max response, negative = inhibition is reported as inconclusive: -37.3%. For `Cc1ccccc1C(=O)NC1CCN(Cc2nnnn2C2CCCC2)CC1`, the max response, negative = inhibition was inconclusive: -32.7%. `Cc1cc(NC(=O)c2ccc([N+](=O)[O-])cc2Cl)no1` was tested, and the max response, negative = inhibition was inactive: -0.328%. With `NS(=O)(=O)c1ccc(CNC(=O)c2ccc(NS(=O)(=O)c3cccs3)cc2)cc1` the max response, negative = inhibition was inconclusive: -34.6%.
